In one assay the target is GFP-3xHA-AurB (UniProt Q6DE08). The assay can be described thus: co-IP; recombinant GFP-AurB added to control or RNase-treated Xenopus egg extract and immunoprecipitated through GFP (anti-GFP antibody or GFP-Trap beads); western blot for Incenp, DasraA and Survivin; mock IP from extract lacking GFP-AurB as control; only the target purified. (Immunoblotting shows a protein as a band on a membrane.)

Protein sequences, listed by entry. Tags and fused reporters are not part of them. Residues count along the entry.
UniProt P61823, residues 27-150: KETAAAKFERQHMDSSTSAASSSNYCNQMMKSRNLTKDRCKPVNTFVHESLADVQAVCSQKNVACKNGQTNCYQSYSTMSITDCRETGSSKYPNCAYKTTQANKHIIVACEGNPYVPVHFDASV

In assay [1] the target is Aurora-B (AurB) (Xenopus laevis (endogenous in egg extract)) (UniProt Q6DE08). Kind of assay: co-IP; endogenous AurB immunoprecipitated with anti-AurB antibodies from control or RNase-treated Xenopus egg extract (RNaseA 0.1 mg/ml); western blot with anti-RNaseA beside 5-50 ng RNaseA in input; only the binder purified.

These are yes or no findings as the source states them, for the method shown. In cells and extracts the contact can be indirect. Some results given as binding are weak or reduced against the parent protein; the word gives no strength.

As for Incenp (from UniProt O13024 1-873), in the assay with GFP-3xHA-AurB, the binding result was “binds”.

Take “RNaseA TypeX IIA (Sigma) (from UniProt P61823 27-150) (enzyme)”: the binding result in assay [1] is given as “no binding (tested: 0.1 mg/ml RNaseA in extract)”.

For the origin of these results see article PMC4072698.
